Assay results published in PubChem BioAssay AID901 (National Center for Advancing Translational Sciences (NCATS), 2007).
This is one part of the list. These are further read-outs of the screen, such as a control signal, another cell line or another target. No call is given for them. The list favours compounds with an active or inconclusive main result. Potencies come from curve fits of mixed quality, noted in brackets.

Experiment: qHTS Assay for Identifying the Cell-Membrane Permeable IMPase Inhibitors
Conditions: CHO-M1 cells, IP1 accumulation, HTRF TR-FRET ratio; measured here: donor channel 620 nm AC50
Excerpt: NCGC IMPase Assay Overview
Lithium has been widely used for the treatment of bipolar disorder. But lithium has a narrow therapeutic index and it can cause side effects such as thirst, weight gain, tremor, polyuria and memory problems. Although the mechanism for lithium action in treatment of bipolar disorder is still not fully understood, inhibition of inositol monophosphatase (IMPase) and the subsequent depletion of the inositol pool in living cells have been implicated as the primary therapeutic benefit of lithium therapy. Therefore, a selective IMPase inhibitor with reduced side effects might be a good drug candidate to replace lithium for the treatment of bipolar disorder. Several IMPase inhibitors have been discovered previously. However, they are not suitable for therapeutic use because of their poor cell membrane penetrability or oral bioavailability; the development of new cell-permeable IMPase inhibitors is needed.
IMPase catalyzes the hydrolysis of inositol-1-phosphate (IP1) to release free inositol. Binding of an agonist to a Gq coupled GPCR results in the activation of PLC, which hydrolyzes the PIP2 to form inositol-1,4,5-trisphosphate (IP3) and diacyl glycerol (DAG). While DAG activates protein kinase C (PKC), IP3 triggers the elevation of intracellular free Ca2+. The IP3 is very rapidly inactivated by hydrolysis to IP2, IP1 and then inositol by a series of enzymes including IMPase. Free inositols are used for synthesis of PI and thus start another inositol cycle.
To identify new cell-permeable IMPase inhibitors, we developed a cell-based IMPase assay in which the cytosolic IP1 is measured by a time-resolved fluorescence resonance energy transfer (TR-FRET) assay. In this assay, an IP1 specific antibody is used to detect the labeled IP1 tracer. When the cell lysate contains the elevated IP1 due to the inhibition of IMPase, the TR-FRET between the labeled antibody and IP1 tracer is disrupted resulting in a reduction in the total signal. Since the TR-FRET is used, this cell-based assay is a homogenous assay without cell wash and medium change that is suitable for assay miniaturization and HTS.
NCGC IMPase Assay Protocol Summary
A Chinese hamster ovary (CHO) cell line stably expressing the M1 receptor (CHO-M1) was obtained from ATCC and maintained in F-12 Kaighn's media (Invitrogen, Carlsbad, CA, 21127) supplemented with 10 % FBS, 100 units/ml penicillin, 100 ug/ml streptomycin and 250 ug/ml geneticin at 37C, 5% CO2 in a humidified atmosphere. Before the assay, aliquots of cells were frozen and stored at -135C. The assay was performed in 1536-well format. Data are reported for both the ratio of the two emission wavelengths, and also for the component 'donor' channel, Em2=620. […] AC50 values were determined from concentration-response data modeled with the standard Hill equation.
IMPase 1536-well assay protocol:
(1) Plate 4 ul/well (2000 cells) of cell suspension from frozen CHO-M1 Cells in white, tissue culture treated 1536-well plates that are cultured at 37C, 5 % CO2 for 16 to 30 hours.
(2) Add 23 nl/well of compound in DMSO solution. The final titration for each compound was between 0.6 nM and 46 uM.
(3) Add 1 ul of carbachol (50 uM in stimulation buffer containing10mM HEPES, 1mM CaCl2, 0.5 mM MgCl2, 4.2 mM KCl, 146 mM NaCl, 5.5 mM glucose, 50mM LiCl, pH 7.4.
(4) Incubation at 37C, 5 % CO2 for 30 min.
(5) Add 1 ul/well of d2-conjugated IP1 (d2-IP1) and 1 ul/well of Eu+ cryptate conjugated anti-IP1 antibody (Eu+-Ab) prepared in the cell lysis buffer, both from the IP-One kit (Cisbio, MA).
(6) Incubate at room temperature for 10 minutes.
(7) Detect the assay plate (Ex = 320, Em1 =665 and Em2 620) in a ViewLux plate reader.
inositol monophosphatase, IMPase, IMPase inhibitor, lithium, bipolar disorder, IP-One, HTRF, qHTS, NIH roadmap, NCGC
Note: In the gene ID and protein GI references for this assay, rat IMPase is referenced instead of hampster as hamster accession numbers were not available.

Compound | AC50
COc1ccc(/C=C/C(=O)OC(C)CN2CCOCC2)cc1 (centres undefined) | 6310 nM [falling, partial curve]
Cc1ccc(S(=O)(=O)N(C)CC(=O)NCc2ccncc2)cc1 | 25.1 nM [falling, full curve, poor fit]
CCCC1S/C(=N/N=C/c2ccc(OC)cc2)N(Cc2ccccc2)C1=O (centres undefined) | 794 nM [falling, full curve, poor fit]
O=C1CCCN1c1ccc(S(=O)(=O)NCCOc2ccccc2)cc1 | 100 nM [falling, single point]
O=C(NCCCn1ccnc1)C(=O)NCc1ccc(Cl)cc1 | 12600 nM [rising, partial curve]
O=C(c1ccco1)N1CCN(C(=O)c2cc3c(=O)oc4ccccc4c3s2)CC1 | 31600 nM [rising, single point]
Cc1cc(C)nc(Nc2ncc(O)n2-c2ccc(C)c(Cl)c2)n1 | 5.01 nM [falling, full curve, poor fit]
COc1ccc(C2C3=C(N=C4SCC(=O)N42)c2ccccc2CC3)cc1 (centres undefined) | 5010 nM [falling, single point]
COc1ccccc1NC(=O)Cc1noc(CSc2nnc(C)s2)n1 | 10 nM [falling, full curve, poor fit]
CCOC(=O)c1cnc2ccc(Cl)cc2c1NCCN(C)C | 1000 nM [falling, full curve]
O=C(COc1ccccc1C(=O)N/N=C\c1ccc(O)c(O)c1)N/N=C/c1ccc(O)c(O)c1 | 10000 nM [falling, partial curve]
COc1cc2cc(Br)cc(Br)c2nc1C | 15800 nM [rising, partial curve]
O=C(Nc1ccccc1)OCN1C(=O)c2ccccc2C1=O | 794 nM [falling, single point]
Cc1ccc2[nH]c(C(=O)O)c(-c3ccccc3)c2c1 | 6310 nM [falling, single point]
Cc1c(C(=O)Nc2ccc(-c3nc4cc(Cl)ccc4o3)cc2)oc2ccccc12 | 5010 nM [rising, partial curve]
COc1ccc(C(CC(=O)O)NC(=O)c2sc3ccccc3c2Cl)cc1 (centres undefined) | 11200 nM [rising, partial curve]
CC(C)(C)n1nnnc1C(c1cccnc1)N(Cc1ccccc1)Cc1ccco1 (centres undefined) | 200 nM [rising, single point]
O=C(Nc1ccc(Cl)cc1C(=O)NCCN1CCOCC1)c1ccco1 | 35500 nM [falling, single point]
CC(C)CN1C(=O)/C(=C/c2cccs2)NC1=S | 12600 nM [falling, single point]
COCCn1c(C)cc(C(=O)CSc2nnc(C)s2)c1C | 35500 nM [falling, single point]
CCOC(=O)CSc1nc(-c2ccncc2)ccc1C#N | 501 nM [falling, partial curve]
COc1ccc(-n2[nH]c(C)cc2=O)cc1 | 251 nM [falling, full curve]

Compound | AC50
CN(C)C(=O)Cn1c(SCC(=O)Nc2ccc3c(c2)OCO3)nc2ccccc21 | 794 nM [falling, full curve]
COc1ccc(CCNC(=O)C(=O)NCC2CCCO2)cc1 (centres undefined) | 1000 nM [falling, full curve]
N#Cc1ccc(Oc2cc(C(F)(F)F)nc(-c3ccccn3)n2)cc1 | 398 nM [rising, full curve]
CN(C)CCN1C(=O)c2oc3ccc(F)cc3c(=O)c2C1c1ccncc1 (centres undefined) | 200 nM [rising, full curve, poor fit]
CN(C)CCN1C(=O)C(O)=C(C(=O)c2cc3ccccc3o2)C1c1cccc(Br)c1 (centres undefined) | 12600 nM [rising, partial curve]
Cc1c(CN(C)C(=O)c2cc(-c3ccccc3)nc3ccc(Br)cc23)cnn1C | 10000 nM [rising, partial curve]
Cc1occc1C(=O)NNC(=O)Nc1ccc(F)cc1F | 28.2 nM [falling, full curve, poor fit]
Cc1c(-c2ccc(Cl)cc2)oc(=O)c2c(N)n(-c3ccccc3)nc12 | 12600 nM [rising, single point]
CCOc1ccc(C(=O)Nc2ccc3oc(-c4cccc5ccccc45)nc3c2)cc1 | 1120 nM [falling, partial curve, poor fit]
Cc1cc2cc(CNC(=O)c3ccc(S(=O)(=O)N4CCCCC4)cc3)ccc2n1C | 20000 nM [rising, single point]
O=C1CNC(=O)/C1=C\N1CCCCC1 | 501 nM [falling, single point]
CCn1nc(NC(=O)c2cccnc2)c2cc3cccc(C)c3nc21 | 63.1 nM [rising, full curve, poor fit]
CCC(C)NC(=O)CSc1nnc(-c2cc(-c3ccc(C)cc3)nc3ccccc23)n1N (centres undefined) | 3160 nM [rising, single point]
Cc1csc(NC(=O)COc2ccc3c(C)cc(=O)oc3c2)n1 | 1000 nM [falling, partial curve, poor fit]
Cc1cc(C)c2oc(-c3cc(NC(=O)Cc4ccccc4)ccc3Cl)nc2c1 | 8.91 nM [falling, full curve, poor fit]
COc1ccc(-c2nnc(-c3cc(OC)c(OC)c(OC)c3)o2)cc1OC | 12600 nM [falling, partial curve]
O=c1c2ccccc2sc2ccc(Cl)cc12 | 31600 nM [rising, single point]
CC1=C(C(=O)N(C)C)C(c2cccs2)NC(=O)N1 (centres undefined) | 100 nM [falling, full curve]
CC(C)n1c(NCCc2ccccc2)nc2c1c(=O)n(C)c(=O)n2C | 89.1 nM [falling, full curve, poor fit]
CCOC(=O)C1=C(c2ccccc2)NC(=O)NC1c1ccc(OCC#N)c(OC)c1 (centres undefined) | 31600 nM [rising, single point]
Cc1ccc(-n2c(N)c(C#N)c(-c3ccc(Cl)cc3)c(C#N)c2=O)cc1 | 31600 nM [falling, single point]
CCOc1ccc(/C(O)=C2/C(=O)C(=O)N(CCOCCO)C2c2ccc(F)cc2)cc1 (centres undefined) | 12600 nM [rising, partial curve]

Of the compounds above, these have an NH in an aromatic ring.
Compound | AC50
Cc1ccc2[nH]c(C(=O)O)c(-c3ccccc3)c2c1 | 6310 nM [falling, single point]
COc1ccc(-n2[nH]c(C)cc2=O)cc1 | 251 nM [falling, full curve]
